No constants are given. Whether binding was seen depends on the method and setting. Binding can be weak; no strength is given.
Target: FOXO4 forkhead (FH) domain (human)
Assay: NMR titration; 1H,15N HSQC of 50 uM 15N-labelled FH domain, unlabelled CR3 added in trans (25 uM or 50 uM); 50 mM NaH2PO4/Na2HPO4 pH 6.5, 0.04% NaN3, 5 mM DTT; 25 C; read-out chemical shift perturbations and line broadening; both purified

| binding | Binder |
| --- | --- |
| binds weakly | FOXO3 conserved region 3 (CR3, transactivation domain), amino acids 593 to 646 (domain or fragment, UniProt O43524 593-646) YSTSANLPVMGHEKFPSDLDLDMFNGSLECDMESIIRSELMDADGLDFNFDSLI |
| binds weakly | FOXO6 conserved region 3 (CR3, transactivation domain), amino acids 418 to 472 (domain or fragment, human, UniProt A8MYZ6 418-472, looked up, human FOXO6, Uniprot A8MYZ6, amino acids 418 to 472, CR3; Unlabelled in the titrations; also called FOXO6^CR3; CR3 of FOXO6; source: E. coli BL21-DE3 Star, lysed in 6 M urea, purified (Ni-NTA, TEV cleavage, second Ni-NTA, SEC)) YAAAAAGPLGAAPDRFPADLDLDMFSGSLECDVESIILNDFMDSDEMDFNFDSAL |

From publication PMC9097636, “FOXO transcription factors differ in their dynamics and intra/intermolecular interactions” (Current Research in Structural Biology, 2022)
